The values below come from doi:10.1101/2025.05.06.651509.

These are yes or no findings as the source states them, for the method shown. For some assays here: Binding seen in cells or lysates may run through a third protein. Some results given as binding are weak or reduced against the parent protein; the word gives no strength. For some assays here: Where a sequence is shown, tags or fusion partners need not be part of it.

One experiment deals with T1, HA-tagged TSC22D4 (UniProt Q9Y3Q8).
T1 sequence: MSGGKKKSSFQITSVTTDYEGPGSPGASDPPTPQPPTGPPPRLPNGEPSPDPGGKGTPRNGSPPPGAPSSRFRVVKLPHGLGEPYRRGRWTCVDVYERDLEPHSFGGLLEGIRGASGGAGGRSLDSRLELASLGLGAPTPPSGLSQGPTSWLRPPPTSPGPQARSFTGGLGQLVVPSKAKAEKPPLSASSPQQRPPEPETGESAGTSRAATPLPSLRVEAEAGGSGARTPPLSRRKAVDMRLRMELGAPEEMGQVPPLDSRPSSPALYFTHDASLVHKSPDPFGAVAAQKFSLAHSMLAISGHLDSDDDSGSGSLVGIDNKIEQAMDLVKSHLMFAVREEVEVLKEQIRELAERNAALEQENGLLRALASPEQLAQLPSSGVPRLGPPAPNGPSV
Description: co-IP.

The target in experiment [1] is recombinant IGF2BP2 (human), Q9Y6M1. Description: MST. Particulars: remark: other sources report otherwise.

B1: endogenous TSC22D4 (protein, UniProt Q9EQN3 1-387)
chain: MSGGKKKSSFQITSVTTDYEGPGSPGASDSPVPPALAGPPPRLPNGDPNPDPGGRGTPRNGSPPPGAPASRFRVVKLPQGLGEPYRRGRWTCVDVYERDLEPPSFGRLLEGIRGASGGTGGRSLDSRLELASLGISTPIPQPGLSQGPTSWLRPPPTSPGPQARSFTGGLGQLAGPGKAKVETPPLSASPPQQRPPGPGTGDSAQTLPSLRVEVESGGSAAATPPLSRRRDGAVRLRMELVAPAETGKVPPTDSRPNSPALYFDASLVHKSPDPFGAAAAQSLSLARSMLAISGHLDSDDDSGSGSLVGIDNKIEQAMDLVKSHLMFAVREEVEVLKEQIRDLAERNAALEQENGLLRALASPEQLAQLPSSGLPRLGPSAPNGPSI
In the case of B1, in the experiment with HA-tagged TSC22D4, the binding entry is reported as “binds”.

B2: recombinant IGF2BP2, Q9Y6M1 1-599 (protein)
chain: MMNKLYIGNLSPAVTADDLRQLFGDRKLPLAGQVLLKSGYAFVDYPDQNWAIRAIETLSGKVELHGKIMEVDYSVSKKLRSRKIQIRNIPPHLQWEVLDGLLAQYGTVENVEQVNTDTETAVVNVTYATREEAKIAMEKLSGHQFENYSFKISYIPDEEVSSPSPPQRAQRGDHSSREQGHAPGGTSQARQIDFPLRILVPTQFVGAIIGKEGLTIKNITKQTQSRVDIHRKENSGAAEKPVTIHATPEGTSEACRMILEIMQKEADETKLAEEIPLKILAHNGLVGRLIGKEGRNLKKIEHETGTKITISSLQDLSIYNPERTITVKGTVEACASAEIEIMKKLREAFENDMLAVNQQANLIPGLNLSALGIFSTGLSVLSPPAGPRGAPPAAPYHPFTTHSGYFSSLYPHHQFGPFPHHHSYPEQEIVNLFIPTQAVGAIIGKKGAHIKQLARFAGASIKIAPAEGPDVSERMVIITGPPEAQFKAQGRIFGKLKEENFFNPKEEVKLEAHIRVPSSTAGRVIGKGGKTVNELQNLTSAEVIVPRDQTPDENEEVIVRIIGHFFASQTAQRKIREIVQQVKQQEQKYPQGVASQRSK
Regarding B2, the binding result in experiment [1] was “binds”.
